# According to the supplement of paper PMC10032668:
# By UniProt entry, the sequences of proteins in these tests, tags left out.
# CALR, P27797, UniProt P27797, whole entry: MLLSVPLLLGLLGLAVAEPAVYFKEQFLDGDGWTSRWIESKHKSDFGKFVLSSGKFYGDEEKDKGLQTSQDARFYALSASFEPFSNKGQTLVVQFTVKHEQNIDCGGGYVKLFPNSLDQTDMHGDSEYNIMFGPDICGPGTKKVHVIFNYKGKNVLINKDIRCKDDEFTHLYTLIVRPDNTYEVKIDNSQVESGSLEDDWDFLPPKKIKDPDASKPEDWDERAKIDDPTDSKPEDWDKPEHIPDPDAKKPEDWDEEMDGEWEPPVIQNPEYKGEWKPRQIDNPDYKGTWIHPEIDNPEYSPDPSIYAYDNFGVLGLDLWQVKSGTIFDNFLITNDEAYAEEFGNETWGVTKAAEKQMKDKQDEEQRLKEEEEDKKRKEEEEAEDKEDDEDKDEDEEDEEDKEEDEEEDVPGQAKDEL
# MYO1C, O00159, UniProt O00159, whole entry: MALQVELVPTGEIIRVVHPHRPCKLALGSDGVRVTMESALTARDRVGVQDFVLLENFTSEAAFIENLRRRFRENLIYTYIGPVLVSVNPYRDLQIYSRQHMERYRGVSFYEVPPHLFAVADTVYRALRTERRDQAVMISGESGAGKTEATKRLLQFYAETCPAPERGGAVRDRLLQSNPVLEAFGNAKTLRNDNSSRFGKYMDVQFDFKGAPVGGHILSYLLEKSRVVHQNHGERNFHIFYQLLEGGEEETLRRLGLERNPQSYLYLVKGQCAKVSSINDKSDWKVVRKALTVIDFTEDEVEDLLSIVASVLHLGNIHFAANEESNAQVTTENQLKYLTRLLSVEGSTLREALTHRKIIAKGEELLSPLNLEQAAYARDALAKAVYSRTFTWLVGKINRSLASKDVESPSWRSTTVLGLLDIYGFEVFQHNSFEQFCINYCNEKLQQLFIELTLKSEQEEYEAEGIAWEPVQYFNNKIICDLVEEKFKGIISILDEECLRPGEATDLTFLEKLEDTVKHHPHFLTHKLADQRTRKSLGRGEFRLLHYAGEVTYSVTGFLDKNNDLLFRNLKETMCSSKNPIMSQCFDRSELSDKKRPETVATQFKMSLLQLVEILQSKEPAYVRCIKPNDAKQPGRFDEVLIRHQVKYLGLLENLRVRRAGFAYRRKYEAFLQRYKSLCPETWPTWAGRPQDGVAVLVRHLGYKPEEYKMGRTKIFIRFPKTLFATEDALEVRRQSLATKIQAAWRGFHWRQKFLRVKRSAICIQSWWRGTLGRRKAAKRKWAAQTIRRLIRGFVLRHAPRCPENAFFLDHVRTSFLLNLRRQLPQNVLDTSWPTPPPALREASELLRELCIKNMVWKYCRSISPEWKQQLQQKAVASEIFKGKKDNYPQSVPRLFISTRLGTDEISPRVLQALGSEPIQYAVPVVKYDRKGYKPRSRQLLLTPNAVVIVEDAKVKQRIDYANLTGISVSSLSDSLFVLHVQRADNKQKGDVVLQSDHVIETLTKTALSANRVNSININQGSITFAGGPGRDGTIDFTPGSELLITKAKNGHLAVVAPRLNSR
# TPX2, Q9ULW0, UniProt Q9ULW0, whole entry: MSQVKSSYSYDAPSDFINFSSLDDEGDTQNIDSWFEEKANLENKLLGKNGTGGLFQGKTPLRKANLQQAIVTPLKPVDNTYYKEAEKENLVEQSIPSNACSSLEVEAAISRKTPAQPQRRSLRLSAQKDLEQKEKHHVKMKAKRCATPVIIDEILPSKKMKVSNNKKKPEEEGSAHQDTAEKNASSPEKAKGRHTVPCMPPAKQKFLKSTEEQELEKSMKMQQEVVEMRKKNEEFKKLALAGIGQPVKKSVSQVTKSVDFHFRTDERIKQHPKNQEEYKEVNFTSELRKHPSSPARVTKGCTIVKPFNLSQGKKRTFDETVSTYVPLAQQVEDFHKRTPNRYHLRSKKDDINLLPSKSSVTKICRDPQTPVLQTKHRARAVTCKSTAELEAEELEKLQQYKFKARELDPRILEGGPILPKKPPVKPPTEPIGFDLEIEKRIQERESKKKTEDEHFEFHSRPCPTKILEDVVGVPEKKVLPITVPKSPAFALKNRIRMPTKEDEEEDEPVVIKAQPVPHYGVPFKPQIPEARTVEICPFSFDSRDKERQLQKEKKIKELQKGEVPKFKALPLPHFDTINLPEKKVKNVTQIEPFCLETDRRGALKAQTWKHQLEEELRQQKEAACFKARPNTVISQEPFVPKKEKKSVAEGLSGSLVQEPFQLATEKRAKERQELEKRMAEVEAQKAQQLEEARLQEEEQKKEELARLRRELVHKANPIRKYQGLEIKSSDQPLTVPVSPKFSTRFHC
# The list shows a part of the results. Only hits are listed; about a third recur on repeated control peptides.
# Legend:
# Test in all cases: PRISMA enrichment of interactor (LFQ) in peptide spot vs all other peptide spots (log2 fold change); higher = stronger / more specific binding of the interactor to the peptide
# [1] = substrate: BCCIP, Q9P287
# Method: (§1)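 PRISMA: 15-aa overlapping tiles (offset 8 aa) of 60 microproteins, plus SOS1/GLUT1 control peptides, were spot-synthesized on cellulose membranes in triplicate. Membranes were incubated with benzonase-treated HEK293T lysate, and bound proteins were identified by LC-MS/MS with LFQ. Enrichment is the log2 fold change of each protein in one spot versus all other spots. Only interactors passing the significance cutoff are listed.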
# [2] = target: BTF3L4, Q96K17
# Method: as §1
# [3] = target: CALR, P27797
# Method: as §1
# [4] = target: CORO1A, P31146
# Method: as §1
# [5] = target: EIF3B, P55884
# Method: as §1
# [6] = target: EIF3F, O00303
# Method: as §1
# [7] = target: EIF3H, O15372
# Method: as §1
# [8] = target: ELOVL5, Q9NYP7
# Method: as §1
# [9] = target: GTF2E2, P29084
# Method: as §1
# [10] = target: GTF2F1, P35269
# Method: as §1
# [11] = target: HAGH, Q16775
# Method: as §1
# [12] = target: HMGB1, P09429
# Method: as §1
# [13] = target: HOMER2, Q9NSB8
# Method: as §1
# [14] = target: HTT, P42858
# Method: as §1
# [15] = target: LSM5, Q9Y4Y9
# Method: as §1
# [16] = target: MRM2, Q9UI43
# Method: as §1
# [17] = target: MYO1C, O00159
# Method: as §1
# [18] = target: NAF1, Q96HR8
# Method: as §1
# [19] = target: NAP1L1, P55209
# Method: as §1
# [20] = target: NUCKS1, Q9H1E3
# Method: as §1
# [21] = target: OGT, O15294
# Method: as §1
# [22] = target: PTMA, P06454
# Method: as §1
# [23] = target: SAAL1, Q96ER3
# Method: as §1
# [24] = target: SDF2, Q99470
# Method: as §1
# [25] = target: SLC25A24, Q6NUK1
# Method: as §1
# [26] = target: SURF6, O75683
# Method: as §1
# [27] = target: ZFC3H1, O60293
# Method: as §1
# [28] = target: BCOR, Q6W2J9
# Method: as §1
# [29] = target: BRIX1, Q8TDN6
# Method: as §1
# [30] = target: CNOT1, A5YKK6
# Method: as §1
# [31] = target: DDX5, P17844
# Method: as §1
# [32] = target: DNAJA3, Q96EY1
# Method: as §1
# [33] = target: GNPDA1, P46926
# Method: as §1
# [34] = target: HNRNPK, P61978
# Method: as §1
# [35] = target: LRRC47, Q8N1G4
# Method: as §1
# [36] = target: LSG1, Q9H089
# Method: as §1
# [37] = target: MRPL11, Q9Y3B7
# Method: as §1
# [38] = target: MRPL21, Q7Z2W9
# Method: as §1
# [39] = target: MUC19, Q7Z5P9
# Method: as §1
# [40] = target: PDHB, P11177
# Method: as §1
# [41] = target: BIN1, O00499
# Method: as §1
# [42] = target: CAPZA1, P52907
# Method: as §1
# [43] = target: CAPZB, P47756
# Method: as §1
# [44] = target: CD2AP, Q9Y5K6
# Method: as §1
# [45] = target: CDK5, Q00535
# Method: as §1
# [46] = target: EPS15L1, Q9UBC2
# Method: as §1
# [47] = target: FBXO3, Q9UK99
# Method: as §1
# [48] = target: GRB2, P62993
# Method: as §1
# [49] = target: HTATSF1, O43719
# Method: as §1
# [50] = target: LASP1, Q14847
# Method: as §1
# [51] = target: NCK1, P16333
# Method: as §1
# [52] = target: PACSIN2, Q9UNF0
# Method: as §1
# [53] = target: RCN2, Q14257
# Method: as §1
# [54] = target: RTTN, Q86VV8
# Method: as §1
# [55] = target: RUSC1, Q9BVN2
# Method: as §1
# [56] = target: SET, Q01105
# Method: as §1
# [57] = target: SH3KBP1, Q96B97
# Method: as §1
# [58] = target: SPAST, Q9UBP0
# Method: as §1
# [59] = target: SRSF1, Q07955
# Method: as §1
# [60] = target: BIRC6, Q9NR09
# Method: as §1
# [61] = target: C19orf47, Q8N9M1
# Method: as §1
# [62] = substrate: CS, O75390
# Method: as §1
# [63] = target: PTGES3, Q15185
# Method: as §1
# [64] = target: TCAF1, Q9Y4C2
# Method: as §1
# [65] = target: BLMH, Q13867
# Method: as §1
# [66] = target: EZH2, Q15910
# Method: as §1
# [67] = target: GOLIM4, O00461
# Method: as §1
# [68] = target: LMF2, Q9BU23
# Method: as §1
# [69] = target: NFS1, Q9Y697
# Method: as §1
# [70] = target: NOC4L, Q9BVI4
# Method: as §1
# [71] = target: RRP8, O43159
# Method: as §1
# [72] = target: TPX2, Q9ULW0
# Method: as §1
# [73] = target: USP15, Q9Y4E8
# Method: as §1
# [74] = target: WDR61, Q9GZS3
# Method: as §1
# [75] = target: BMS1, Q14692
# Method: as §1
# [76] = target: CD81, P60033
# Method: as §1
# [77] = target: DNAJB4, Q9UDY4
# Method: as §1
# [78] = target: FAM136A, Q96C01
# Method: as §1
# [79] = target: FAM168A, Q92567
# Method: as §1
# [80] = target: HSD17B12, Q53GQ0
# Method: as §1
# [81] = target: LANCL1, O43813
# Method: as §1
# [82] = target: MSH2, P43246
# Method: as §1
# [83] = target: SQSTM1, Q13501
# Method: as §1
# [84] = target: TOMM70, O94826
# Method: as §1
# [85] = target: VCP, P55072
# Method: as §1
binder,measurement,setting,value
VSRLSPTEKKKKKMS [ZEB2],PRISMA enrichment of interactor (log2),[1],4.36
same,PRISMA enrichment of interactor (log2),[2],4.23
same,PRISMA enrichment of interactor (log2),[3],5.36
same,PRISMA enrichment of interactor (log2),[4],3.76
same,PRISMA enrichment of interactor (log2),[5],4.57
same,PRISMA enrichment of interactor (log2),[6],4.58
same,PRISMA enrichment of interactor (log2),[7],4.94
same,PRISMA enrichment of interactor (log2),[8],4.89
same,PRISMA enrichment of interactor (log2),[9],6.34
same,PRISMA enrichment of interactor (log2),[10],4.49
same,PRISMA enrichment of interactor (log2),[11],10.7
same,PRISMA enrichment of interactor (log2),[12],6.06
same,PRISMA enrichment of interactor (log2),[13],5.03
same,PRISMA enrichment of interactor (log2),[14],4.04
same,PRISMA enrichment of interactor (log2),[15],4.02
same,PRISMA enrichment of interactor (log2),[16],4.58
same,PRISMA enrichment of interactor (log2),[17],6.19
same,PRISMA enrichment of interactor (log2),[18],5.44
same,PRISMA enrichment of interactor (log2),[19],5.72
same,PRISMA enrichment of interactor (log2),[20],3.98
same,PRISMA enrichment of interactor (log2),[21],5.53
same,PRISMA enrichment of interactor (log2),[22],7.58
same,PRISMA enrichment of interactor (log2),[23],4.23
same,PRISMA enrichment of interactor (log2),[24],6.71
same,PRISMA enrichment of interactor (log2),[25],4.56
same,PRISMA enrichment of interactor (log2),[26],5.86
same,PRISMA enrichment of interactor (log2),[27],5.25
RLREKLTLLHYDPVV [MRPL33],PRISMA enrichment of interactor (log2),[28],4.89
same,PRISMA enrichment of interactor (log2),[29],5.03
same,PRISMA enrichment of interactor (log2),[30],4.92
same,PRISMA enrichment of interactor (log2),[31],4.53
same,PRISMA enrichment of interactor (log2),[32],4.91
same,PRISMA enrichment of interactor (log2),[33],5.63
same,PRISMA enrichment of interactor (log2),[34],4.53
same,PRISMA enrichment of interactor (log2),[35],3.9
same,PRISMA enrichment of interactor (log2),[36],5.81
same,PRISMA enrichment of interactor (log2),[37],8.75
same,PRISMA enrichment of interactor (log2),[38],5.83
same,PRISMA enrichment of interactor (log2),[39],7.88
same,PRISMA enrichment of interactor (log2),[40],4.4
EVPVPPPVPPRRRP [SOS1_WT_3],PRISMA enrichment of interactor (log2),[41],4.55
same,PRISMA enrichment of interactor (log2),[42],4.5
same,PRISMA enrichment of interactor (log2),[43],4.98
same,PRISMA enrichment of interactor (log2),[44],7.12
same,PRISMA enrichment of interactor (log2),[45],4.05
same,PRISMA enrichment of interactor (log2),[46],4.64
same,PRISMA enrichment of interactor (log2),[47],6.5
same,PRISMA enrichment of interactor (log2),[48],7.85
same,PRISMA enrichment of interactor (log2),[49],5.08
same,PRISMA enrichment of interactor (log2),[50],4.31
same,PRISMA enrichment of interactor (log2),[51],3.36
same,PRISMA enrichment of interactor (log2),[52],6
same,PRISMA enrichment of interactor (log2),[53],4.61
same,PRISMA enrichment of interactor (log2),[54],4.23
same,PRISMA enrichment of interactor (log2),[55],4.73
same,PRISMA enrichment of interactor (log2),[56],3.74
same,PRISMA enrichment of interactor (log2),[57],4.26
same,PRISMA enrichment of interactor (log2),[58],3.74
same,PRISMA enrichment of interactor (log2),[59],4.26
KKYSHWKRGKVIVIS [RP11-432J24.5],PRISMA enrichment of interactor (log2),[60],3.85
same,PRISMA enrichment of interactor (log2),[61],6.45
same,PRISMA enrichment of interactor (log2),[62],4.75
same,PRISMA enrichment of interactor (log2),[63],4.79
same,PRISMA enrichment of interactor (log2),[64],4.54
MRNKREGAFPCAALG [LINC00881_2],PRISMA enrichment of interactor (log2),[65],4.89
same,PRISMA enrichment of interactor (log2),[66],3.96
same,PRISMA enrichment of interactor (log2),[67],4.55
same,PRISMA enrichment of interactor (log2),[68],4.85
same,PRISMA enrichment of interactor (log2),[69],5.89
same,PRISMA enrichment of interactor (log2),[70],5.3
same,PRISMA enrichment of interactor (log2),[53],6.84
same,PRISMA enrichment of interactor (log2),[71],3.71
same,PRISMA enrichment of interactor (log2),[72],4.59
same,PRISMA enrichment of interactor (log2),[73],5.64
same,PRISMA enrichment of interactor (log2),[74],7.11
DWAVGYRPGKHAASK [EBAG9],PRISMA enrichment of interactor (log2),[75],5.41
same,PRISMA enrichment of interactor (log2),[76],3.7
same,PRISMA enrichment of interactor (log2),[77],4.44
same,PRISMA enrichment of interactor (log2),[78],4.36
same,PRISMA enrichment of interactor (log2),[79],4.71
same,PRISMA enrichment of interactor (log2),[80],7.02
same,PRISMA enrichment of interactor (log2),[81],5.26
same,PRISMA enrichment of interactor (log2),[82],5.22
same,PRISMA enrichment of interactor (log2),[83],3.96
same,PRISMA enrichment of interactor (log2),[84],5.93
same,PRISMA enrichment of interactor (log2),[85],4.68

# Fetched one by one from the list above:
binder,measurement,setting,value
RLREKLTLLHYDPVV [MRPL33],PRISMA enrichment of interactor (log2),[39],7.88
EVPVPPPVPPRRRP [SOS1_WT_3],PRISMA enrichment of interactor (log2),[42],4.5
VSRLSPTEKKKKKMS [ZEB2],PRISMA enrichment of interactor (log2),[12],6.06
RLREKLTLLHYDPVV [MRPL33],PRISMA enrichment of interactor (log2),[28],4.89
VSRLSPTEKKKKKMS [ZEB2],PRISMA enrichment of interactor (log2),[16],4.58
same,PRISMA enrichment of interactor (log2),[5],4.57
